No constants are given. Whether binding was seen depends on the method and setting. In cells and extracts the contact can be indirect. Some results given as binding are weak or reduced against the parent protein; the word gives no strength. Where a sequence is shown, tags or fusion partners need not be part of it.
Legend:
[1] = target: 6xHis-CTHS-GFP fusion protein (yeast (SUMO/Smt3 part)); test: pull-down from E. coli soluble proteins on Cys-6xHis-NTHS Sulfo-link resin, SDS-PAGE, Coomassie
[2] = target: 6xHis-CTHS-GFP fusion protein (yeast (SUMO/Smt3 part)); test: pull-down from E. coli soluble proteins on protein-coupled resin, SDS-PAGE, Coomassie

- binding [1]: binds
- binding [2]: binds
B1: Cys-6xHis-NTHS protein (protein)
chain: MGCHHHHHHGSDSEVNQEAKPEVKPEVKPETHINLKVSDGSSEIFFKIKKTTPLRRLMEAFAK
modifications: coupled through the engineered N-terminal cysteine to Sulfo-link resin

From patent publication US20070037246A1
